From PubChem BioAssay AID1671190 (National Center for Advancing Translational Sciences (NCATS), 2021)
Screen size: about 580,000 compounds; about 6,100 (1.1%) were called active. The shares of active, inactive and inconclusive entries below differ from those in the screen. Calls follow the shape of the dose curve; as a rule, active = well fitted inhibition curve with a large enough effect; inconclusive = small, poorly fitted or top-dose-only effect, or another doubt; inactive = no such curve, though single readings can be large or run the other way. A potency beside an inconclusive call is a rough fit, not a confirmed value. Peptide text beside a SMILES is read from it. * marks the point of attachment. Tos = Cc1ccc(S(=O)(=O)*)cc1

The chains behind the UniProt entries cited, without tags or fusion partners.
UniProt P18054, whole entry, looked up: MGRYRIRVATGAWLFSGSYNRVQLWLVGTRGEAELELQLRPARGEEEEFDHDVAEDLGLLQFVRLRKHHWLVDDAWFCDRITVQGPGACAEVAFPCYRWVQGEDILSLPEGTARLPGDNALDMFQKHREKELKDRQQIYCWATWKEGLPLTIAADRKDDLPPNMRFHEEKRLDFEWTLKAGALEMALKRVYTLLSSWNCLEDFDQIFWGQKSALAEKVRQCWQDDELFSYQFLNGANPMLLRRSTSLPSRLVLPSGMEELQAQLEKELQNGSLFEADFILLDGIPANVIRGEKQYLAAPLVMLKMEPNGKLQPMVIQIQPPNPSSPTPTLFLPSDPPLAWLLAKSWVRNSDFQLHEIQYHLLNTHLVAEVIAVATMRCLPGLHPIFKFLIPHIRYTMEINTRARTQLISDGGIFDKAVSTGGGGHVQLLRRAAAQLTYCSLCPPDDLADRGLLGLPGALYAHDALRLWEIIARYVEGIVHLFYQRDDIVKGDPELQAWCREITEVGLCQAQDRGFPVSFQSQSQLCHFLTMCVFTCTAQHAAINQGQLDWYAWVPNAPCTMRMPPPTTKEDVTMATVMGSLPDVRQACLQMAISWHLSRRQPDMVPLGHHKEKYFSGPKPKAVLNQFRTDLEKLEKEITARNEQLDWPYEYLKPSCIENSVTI

Biological target: Polyunsaturated fatty acid lipoxygenase ALOX12 (Homo sapiens) (UniProt P18054)
Assay: Primary qHTS assay for inhibitors of human arachidonate 12S-lipoxygenase (ALOX12): Round 2
Details: purified 12hLO, xylenol orange hydroperoxide absorbance; activity change, negative = inhibition: at 108 µM (top of the series) unless noted
In short: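 Purified human 12hLO at 150 nM in 25 mM Hepes, 0.01% Triton X-100, pH 7.0, preincubated 15 min at room temperature with compound. Reaction started with 40 uM arachidonic acid, 30 min at room temperature. Hydroperoxide measured by Fe-xylenol orange, 573/405 nm absorbance ratio.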
% is scaled to controls: 0 for no effect and ±100 for the full control effect; potency is read from the fitted curve at half-maximal effect.

Structure (SMILES) | activity change, negative = inhibition | Potency
COc1cc2ccccc2cc1C(=O)OCc1ccc(C#N)cc1 | inactive: -1.19% | –
COc1ccccc1NC1=NC2(CCCC2)N=C(N)N1 | – | inconclusive: 126 µM [inhibitor, single point]
COC(=O)c1ccc(-c2nc(O)c(C)s2)cc1 | – | inconclusive: 31.6 µM [inhibitor, partial curve]
CCN(CC)CCCNc1nc2ccccc2c2[nH]c3ccc(OC)cc3c12 | – | active: 44.7 µM
Cn1nccc1C(=O)N/N=C/c1cccnc1 | – | inconclusive: 2.82 µM [inhibitor, partial curve, poor fit]
Cc1ccc(N(Cc2nnc(SCC(=O)c3cc(C)n(C4CC4)c3C)n2C)S(C)(=O)=O)cc1 | – | inconclusive: 0.282 µM [inhibitor, full curve, poor fit]
CN(C)CCCN(C(=O)CCOc1ccccc1)c1nc2ccc(F)cc2s1 | – | inconclusive: 126 µM [inhibitor, partial curve, poor fit]
COc1ccc(Cl)cc1NC(=O)c1c(NCc2ccc(C)o2)sc2c1CCC(C)C2 (configuration not stated) | inactive: 3.85% | –
COc1ccccc1OCc1ccc(C(=O)Nc2ccccc2)cc1 | inactive: 177% | –
N#Cc1cccc(-c2cc(NCc3ccccc3)ncn2)c1 | – | inconclusive: 3.55 µM [inhibitor, full curve, poor fit]
O=C(O)c1ccc(NS(=O)(=O)c2cccc(C(=O)Nc3ccc(Br)cc3)c2)cc1 | inactive: -21.8% | –
CCN(C(C)=O)C1CCN(Cc2nc(-c3cccc(Cl)c3)oc2C)C1 (configuration not stated) | inactive: 23.2% | –
NNC(=O)CS(=O)(=O)CS(=O)(=O)CC(=O)NN | inactive: 10.8% | –
OC(c1ccc(F)c(F)c1)c1nc(-c2ccc(Cl)cc2)cs1 (configuration not stated) | – | inconclusive: 44.7 µM [inhibitor, partial curve, poor fit]
COc1ccc(Br)cc1/C=N/Nc1ccc(S(=O)(=O)Nc2ccccc2C(=O)O)cc1[N+](=O)[O-] | – | active: 14.1 µM
O=C1COCC2(CN1)CN(Cc1ccc3c(c1)CCO3)C2 | – | inconclusive: 89.1 µM [inhibitor, full curve, poor fit]
CNC(=O)[C@@H]1C[C@H](Oc2cccnc2)CN1C(=O)CCc1c[nH]c2ccccc12 | – | inconclusive: 50.1 µM [inhibitor, partial curve, poor fit]
C=C(C)CSc1nc2sc3c(c2c(=O)n1Cc1ccccc1)CC(C)(CC)OC3 (configuration not stated) | inactive: -0.133% | –
O=C(O)CSCc1ccncc1 | – | inconclusive: 56.2 µM [inhibitor, partial curve, poor fit]
Cc1ccc(-c2noc(CSc3nnc4ccccn34)n2)cc1 | inactive: -10.7% | –
CCC(C)NC(=O)CN1C(=O)c2cccnc2Sc2ccccc21 (configuration not stated) | inactive: -7.81% | –
CCCn1ncc(CN2CCC(C(=O)Nc3cccc(-c4cccc(F)c4)c3)CC2)c1C | inactive: 0% | –
COc1ccc(Cl)cc1-c1cc(C(=O)Nc2ccc(F)cc2)[nH]n1 | inactive: -3.84% | –

Structure (SMILES) | activity change, negative = inhibition | Potency
CC1=C(C(=O)c2ccccc2)C(c2cccc([N+](=O)[O-])c2)NC(=S)N1 (configuration not stated) | – | inconclusive: 50.1 µM [inhibitor, partial curve, poor fit]
Cc1ccc(C(O)CNC(=O)Nc2ccc(C)cc2C)cc1 (configuration not stated) | inactive: -52.4% | –
CN(C)N1C(N)=C(C#N)C(c2ccsc2)C2=C1CC(C)(C)CC2=O (configuration not stated) | inactive: -5.45% | –
O=C(CN1C(=O)NC2(CCS(=O)(=O)CC2)C1=O)Nc1ccc(Cl)cc1F | – | inconclusive: 22.4 µM [inhibitor, full curve]
CCOc1c2ccc(C(=O)NCc3ccco3)cc2nn1CCOC | inactive: -12.4% | –
CCn1c(Cn2ccnc2C)nnc1C1CCN(C(=O)CCN)CC1 | – | inconclusive: 8.91 µM [inhibitor, full curve, poor fit]
CC(=O)c1ccc2noc(-c3cccc(C)c3)c2c1 | inactive: -16.7% | –
CSc1ccccc1C(=O)Nc1ncc(C)s1 | – | inconclusive: 89.1 µM [inhibitor, single point]
CS(=O)Cc1cccc(C(=O)NC2CCN(Cc3ccc(Cl)cc3)CC2)c1 (configuration not stated) | – | inconclusive: 15.8 µM [inhibitor, full curve, poor fit]
COC(=O)C1=C(C)N(Cc2ccccc2C(F)(F)F)C(=NCc2ccc3c(c2)OCO3)NC1CCc1ccccc1 (configuration not stated) | – | inconclusive: 50.1 µM [inhibitor, partial curve, poor fit]
C=CCNc1oc(-c2ccco2)nc1S(=O)(=O)c1ccccc1 | – | inconclusive: 79.4 µM [inhibitor, partial curve, poor fit]
Cc1noc(C)c1S(=O)(=O)N(C)C[C@H]1Oc2c(NC(=O)Nc3ccc4c(c3)OCO4)cccc2C(=O)N([C@H](C)CO)C[C@@H]1C | – | inconclusive: 126 µM [inhibitor, single point]
Cc1noc(C)c1-c1ccc2ncnc(NC3CCNCC3)c2c1 | – | inconclusive: 89.1 µM [inhibitor, single point]
Cc1ccc(S(=O)(=O)N[C@@H](CO)C(=O)N[C@@H](Cc2ccc(O)cc2)C(=O)O)cc1 (Tos-Ser-Tyr-OH) | – | inconclusive: 12.6 µM [inhibitor, partial curve, poor fit]
CCc1ccccc1NC(=O)CN(C)C(=O)COc1ccc2oc3c(c2c1)CCCC3 | inactive: 8.6% | –
CCCCSc1nnc(CNC(=O)C23CC4CC(CC(C4)C2)C3)n1Cc1ccccc1 | inactive: 1.05% | –
Cc1ccc(-c2nc3ccccc3[nH]2)s1 | inactive: 0% | –
Cc1ccc(C)c(Cn2nnc3c(=O)[nH]c(C4CCN(S(=O)(=O)c5ccc(S(=O)(=O)NC6CC6)cc5)CC4)nc32)c1 | – | inconclusive: 100 µM [inhibitor, partial curve, poor fit]
O=C(Cn1cnc2c(nnn2Cc2ccc(F)cc2)c1=O)Nc1ccc2c(c1)OCO2 | inactive: -2.23% | –
O=C(Nc1ccccn1)c1ccc(COc2ccccc2Cl)o1 | – | inconclusive: 50.1 µM [inhibitor, partial curve, poor fit]
CC(O)CNc1nc2c(c(=O)n(C)c(=O)n2C)n1C/C=C/c1ccccc1 (configuration not stated) | inactive: 6.94% [at 57.4 µM] | –
CCCN1C(=O)CCc2cc(NC(=O)c3cccc(C)c3)ccc21 | – | inconclusive: 35.5 µM [inhibitor, partial curve, poor fit]
COc1cccc(CN2CC(C(=O)NC3(c4ccccc4)CC3)CCC2=O)c1 (configuration not stated) | – | inconclusive: 89.1 µM [inhibitor, partial curve, poor fit]

Structure (SMILES) | activity change, negative = inhibition | Potency
CC1CCc2c(nc3ncnn3c2N2CC(C)OC(C)C2)C1 (configuration not stated) | – | inconclusive: 63.1 µM [inhibitor, partial curve, poor fit]
Cc1ccc2oc3c(c(=O)c2c1)C(c1ccc(O)cc1)N(CCCN(C)C)C3=O (configuration not stated) | – | inconclusive: 56.2 µM [inhibitor, partial curve, poor fit]
COc1ccc(C(=O)N2CC(CO)C3(CCNCC3)C2)c(OC)c1 (configuration not stated) | – | inconclusive: 8.91 µM [inhibitor, partial curve, poor fit]
Cc1ccc(-c2nc(CS(=O)CC(=O)NCCCc3ccccc3)c(C)o2)cc1 (configuration not stated) | – | inconclusive: 5.62 µM [inhibitor, full curve, poor fit]
Fc1ccccc1N1CCN(c2nc(-c3cccnc3)nc3ccccc23)CC1 | inactive: 0.0579% | –
COC(=O)c1ccc([C@@H]2Nc3c(OC)ccc(C)c3[C@@H]3C=CC[C@@H]32)cc1 | – | inconclusive: 22.4 µM [inhibitor, partial curve, poor fit]
CS(=O)(=O)N1CCN(c2ccc([N+](=O)[O-])c(NCc3ccc(Cl)cc3)c2)CC1 | – | inconclusive: 79.4 µM [inhibitor, single point]
Cc1cc(F)ccc1NC(=O)C(c1ccccc1)N1Cc2ccccc2C1=O (configuration not stated) | – | inconclusive: 100 µM [inhibitor, partial curve, poor fit]
O=C(NC(=S)Nc1ccc(Cl)c(C(=O)O)c1)c1ccco1 | – | inconclusive: 31.6 µM [inhibitor, partial curve, poor fit]
CSc1ccc(C(=O)C2CCCN(Cc3cccc4nccnc34)C2)cc1 (configuration not stated) | inactive: -14.5% | –
CC1(C)CC(=O)C(C=NCCCN2CCOCC2)=C(O)C1 | – | inconclusive: 31.6 µM [inhibitor, single point]
Cc1nn(-c2ccccc2)c2[nH]c(C(F)(F)F)cc(=O)c12 | inactive: 0% [at 57.4 µM] | –
Cc1ccc(CN2CCCC23Cc2ccccc2CNC3=O)cc1C (configuration not stated) | – | inconclusive: 63.1 µM [inhibitor, partial curve]
CCOc1ccc(N=Cc2ccc([N+](=O)[O-])cc2)c(O)c1 | – | inconclusive: 35.5 µM [inhibitor, partial curve, poor fit]
CCn1c2ccccc2c2cc(CN3CCN(Cc4ccc(Br)cc4)CC3)ccc21 | – | inconclusive: 6.31 µM [inhibitor, full curve, poor fit]
NC(N)=NS(=O)(=O)c1ccc(NC(=S)NC(=O)c2ccccc2)cc1 | – | inconclusive: 112 µM [inhibitor, single point]
O=C(Nc1ccccc1Cl)c1cc(C2CC2)nn1-c1ccccc1 | – | inconclusive: 39.8 µM [inhibitor, partial curve, poor fit]
Cc1ccccc1N(C(=O)c1snc(C(N)=O)c1N)C(C(=O)NC1CCCCC1)c1ccc(O)cc1 (configuration not stated) | – | inconclusive: 1.41 µM [inhibitor, full curve, poor fit]
Cc1cc(C)cc(NC(=O)C(Sc2nnnn2C2CCCC2)c2ccccc2)c1 (configuration not stated) | – | inconclusive: 39.8 µM [inhibitor, partial curve, poor fit]
O=[N+]([O-])c1ccc(Nc2ccccc2-c2ccccc2)c2nonc12 | – | inconclusive: 7.69 µM [inhibitor, single point]
Cc1ccccc1CNC(=O)c1ccccc1SCC(=O)NCc1ccco1 | – | inconclusive: 44.7 µM [inhibitor, partial curve]

Nothing new here: three of the compounds above.
Structure (SMILES) | activity change, negative = inhibition | Potency
Cc1cc(C)cc(NC(=O)C(Sc2nnnn2C2CCCC2)c2ccccc2)c1 (configuration not stated) | – | inconclusive: 39.8 µM [inhibitor, partial curve, poor fit]
O=[N+]([O-])c1ccc(Nc2ccccc2-c2ccccc2)c2nonc12 | – | inconclusive: 7.69 µM [inhibitor, single point]
Cc1ccccc1CNC(=O)c1ccccc1SCC(=O)NCc1ccco1 | – | inconclusive: 44.7 µM [inhibitor, partial curve]
